Test results reported in patent US20250313643A1 (UNM RAINFOREST INNOVATIONS, published 2025).
No constants are given. Whether binding was seen depends on the method and setting. Some entries that bind do so weakly or less than the wild type.

Sequences of proteins named here, by UniProt entry; tags and fusion partners are left off. A change or cut given only in a name is not applied to a line headed by its entry.
UniProt P32239: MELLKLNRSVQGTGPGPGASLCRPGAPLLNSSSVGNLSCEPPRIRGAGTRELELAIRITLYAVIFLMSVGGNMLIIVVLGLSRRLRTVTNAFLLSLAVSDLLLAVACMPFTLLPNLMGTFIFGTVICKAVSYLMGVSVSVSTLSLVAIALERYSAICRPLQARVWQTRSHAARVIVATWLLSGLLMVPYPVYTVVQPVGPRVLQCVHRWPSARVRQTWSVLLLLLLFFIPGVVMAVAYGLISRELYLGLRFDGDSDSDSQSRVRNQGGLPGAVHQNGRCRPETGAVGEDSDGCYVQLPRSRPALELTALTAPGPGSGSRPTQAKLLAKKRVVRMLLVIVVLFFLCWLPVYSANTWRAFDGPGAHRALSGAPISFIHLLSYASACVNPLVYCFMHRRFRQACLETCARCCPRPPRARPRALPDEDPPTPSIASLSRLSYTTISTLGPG

Target: T1, human CCKBR extracellular peptide (human, UniProt P32239 39-53)
T1 construct: domain: extracellular fragment of human CCK-BR; also called human peptide; human CCKBR peptide
Experiment: indirect ELISA on human CCKBR peptide, OD450nm against nM scFv

| binding | Binder |
| --- | --- |
| binds | scFv77-2 hu HC2-LC3 (scFv, also called humanized CCKBR scFv HC2-LC3; CCKBR hscFv HC2-LC3) scFv: MAQVQLVQSGAEVKKPGASVKVSCKASGFNIKDYYIHWVRQAPGQGLEWIGWIDPENGDTEYAPKFQGRATMTADTSISTAYMELSRLRSDDTAVYYCNAGGRFAYWGQGTLVTVSSGGGGSGGGGSGGGGSDIQMTQSPSTLSASVGDRVTITCKSSQSLLNSGNQKNYLAWYQQKPGKAPKLLIYGASTRESGVPSRFSGSGSGTEFTLTISSLQPDDFATYYCQNDHSYPYTFGGGTKVEIKENLYFQGAAALEHHHHHH |
| binds | mscFv77-2 Parental (scFv, V domains shown, Murine single-chain Fv; It has a kappa light chain; also called murine parent scFv; parental scFv) VH: EVQLQQAGAELVRSGASVKLSCTASGFNIKDYYIHWVKQRPEQGLEWIGWIDPENGDTEYAPKFQGKATMTADTSSNTAYLQLSSLTSEDTAVYYCNAGGRFAYWGQGTLVTVSA VL: DIVMTQSPSSLSVSAGEKVTMSCKSSQSLLNSGNQKNYLAWYQQKPGQPPKLLIYGASTRESGVPDRFTGSGSGTDFTLTISSVQAEDLAVYYCQNDHSYPYTFGGGTKLEIK |
